# Experimental data: the supplement of paper PMC12067093, “Discovery and optimisation of a covalent ligand for TRIM25 and its application to targeted protein ubiquitination” (Chemical Science, 2025)
# Chains of the proteins cited; added tags and fusions are not shown. Lines headed by an entry give the natural chain unless they say otherwise; changes in a name come on top.
# UniProt Q16513: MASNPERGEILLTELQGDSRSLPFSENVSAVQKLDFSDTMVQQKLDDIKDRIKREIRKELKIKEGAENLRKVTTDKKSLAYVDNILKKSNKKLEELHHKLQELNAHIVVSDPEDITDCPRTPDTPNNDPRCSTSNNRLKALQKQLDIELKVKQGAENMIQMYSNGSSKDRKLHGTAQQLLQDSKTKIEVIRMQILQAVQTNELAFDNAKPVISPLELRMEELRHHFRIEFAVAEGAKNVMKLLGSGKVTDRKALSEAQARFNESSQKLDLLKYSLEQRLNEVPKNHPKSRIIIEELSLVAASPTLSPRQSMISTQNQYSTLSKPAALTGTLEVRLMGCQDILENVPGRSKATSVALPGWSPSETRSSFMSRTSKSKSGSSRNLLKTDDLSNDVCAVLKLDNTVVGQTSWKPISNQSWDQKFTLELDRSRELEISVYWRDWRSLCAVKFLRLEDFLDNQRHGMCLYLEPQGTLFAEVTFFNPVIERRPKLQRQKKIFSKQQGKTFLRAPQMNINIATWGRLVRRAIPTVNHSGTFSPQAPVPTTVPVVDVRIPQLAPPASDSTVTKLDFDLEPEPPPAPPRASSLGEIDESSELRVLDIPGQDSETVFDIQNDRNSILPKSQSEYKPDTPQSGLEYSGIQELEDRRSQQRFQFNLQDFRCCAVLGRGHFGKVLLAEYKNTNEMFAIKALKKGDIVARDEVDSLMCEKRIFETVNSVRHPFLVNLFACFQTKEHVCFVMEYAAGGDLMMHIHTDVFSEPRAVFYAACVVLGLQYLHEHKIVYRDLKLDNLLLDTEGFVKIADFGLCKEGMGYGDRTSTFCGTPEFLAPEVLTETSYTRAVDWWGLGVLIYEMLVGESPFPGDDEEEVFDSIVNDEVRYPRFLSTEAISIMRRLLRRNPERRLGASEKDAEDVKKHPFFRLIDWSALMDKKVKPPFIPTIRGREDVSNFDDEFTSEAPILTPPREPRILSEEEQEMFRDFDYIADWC
# The list shows a part of the results.
# Compound: CC1Cc2ccccc2N1C(=O)C1CCCN(C1)C(=O)CCl (mixture of isomers) [TRIM25 ligand 11 (diastereomer mixture)]
# Assay: probe-labelled cysteine peptide fold change vs DMSO (competition) (log2 fold change); higher = less target engagement (more negative = stronger competition)
# Conditions: THP-1, incubation time: 4 h
# 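Further: competitive chemoproteomic profiling in live THP-1 cells with an iodoacetamide desthiobiotin (IA-DTB) probe, comparing probe-labelled peptide intensities in compound-treated cells against DMSO-treated controls.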
target,measurement,setting,value
PKN2_Q16513_118_LQELNAHIVVSDPEDITDCPR (UniProt Q16513),probe-labelled cysteine peptide fold change,10 µM,0.231
same,probe-labelled cysteine peptide fold change,50 µM,-0.221
